Measurements reported in PubChem BioAssay AID652243 (Drosophila RNAi Screening Center, 2013).

Assay: 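Fly genes required for human androgen receptor driven transcription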 (primary screen)
System: Drosophila S2R+ cells
Reagents: long dsRNA against Drosophila genes
Time to read-out: 72 h (48 h, then 24 h hormone)
Treatment: synthetic androgen R1881 at 10 nM for 24 h
Read-out: 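Per-well raw luminescence of the androgen-driven firefly reporter and of the Renilla control, two replicates each, without normalisation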
Direction: firefly reporter light: higher = more light from androgen-responsive reporter; Renilla control light: higher = more constitutive control signal (cell number, transfection)
Call rule: 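Hit when the log firefly-to-Renilla ratio dropped or increased by a fixed fold versus the mean of GFP or LacZ controls across duplicate plates; lowering cut given as 1.5 and as 3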
Calls: active = hit: reporter lowered or raised; inactive = no hit
In all, the deposit lists about 24,000 reagents; below is an unselected part of those that have a named target and a result. In the full data, 246 (1%) are marked active. 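Plates not normalised; calls are printed but the firefly/Renilla ratio behind them is not deposited; fold cut for lowering reported inconsistently.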 The raw values are shown without normalisation. A plus sign joins genes that one reagent is predicted to hit. The record does not give: the amount of reagent.

| gene knocked down | dsRNA | firefly reporter light, replicate 1 | firefly reporter light, replicate 2 | Renilla control light, replicate 1 | Renilla control light, replicate 2 | Outcome |
| --- | --- | --- | --- | --- | --- | --- |
| CARPA (Carbonic anhydrase-related protein A) | DRSC17905 | 2.02e5 | 3.49e5 | 3.32e6 | 3.36e6 | inactive |
| CARPA (Carbonic anhydrase-related protein A) | DRSC21633 | 9.65e5 | 7.64e5 | 2.32e6 | 2.03e6 | inactive |
| CG42811 | DRSC15367 | 2.32e5 | 1.77e5 | 2.77e6 | 2.74e6 | inactive |
| CG8064 | DRSC16373 | 63439 | 73989 | 6.21e5 | 5.69e5 | inactive |
| CG3434 | DRSC10365 | 1.13e6 | 4.61e5 | 1.34e6 | 5.28e5 | inactive |
| RagA-B (Ras-related GTP binding A/B) | DRSC14450 | 63558 | 89700 | 3.20e5 | 4.31e5 | inactive |
| CG5645 | DRSC10532 | 6.56e5 | 4.93e5 | 1.27e6 | 1.25e6 | inactive |
| Rpt6R (Regulatory particle triple-A ATPase 6-related) | DRSC15431 | 2.46e5 | 2.47e5 | 2.09e6 | 3.18e6 | inactive |
| Syx4 (Syntaxin 4) | DRSC18586 | 4.22e5 | 3.65e5 | 4.88e6 | 4.66e6 | inactive |
| Syx4 (Syntaxin 4) | DRSC27586 | 2.01e5 | 2.33e5 | 3.21e5 | 5.61e5 | inactive |
| Dsp1 (Dorsal switch protein 1) | DRSC23078 | 3.55e5 | 1.99e5 | 3.49e5 | 5.75e5 | inactive |
| Dsp1 (Dorsal switch protein 1) | DRSC28760 | 6.10e5 | 5.26e5 | 1.32e6 | 1.55e6 | inactive |
| Zyx (Zyxin) | DRSC17186 | 1.11e6 | 8.48e5 | 1.94e6 | 9.12e5 | inactive |
| Andorra | DRSC19475 | 6.07e5 | 6.92e5 | 2.70e6 | 3.24e6 | inactive |
| CG11300 | DRSC04104 | 98261 | 1.10e5 | 1.59e6 | 1.89e6 | inactive |
| Nrt (Neurotactin) | DRSC11237 | 31674 | 27107 | 5.19e5 | 3.19e5 | inactive |

Quoted from the entries so far for reference:
| gene knocked down | dsRNA | firefly reporter light, replicate 1 | firefly reporter light, replicate 2 | Renilla control light, replicate 1 | Renilla control light, replicate 2 | Outcome |
| --- | --- | --- | --- | --- | --- | --- |
| CG5645 | DRSC10532 | 6.56e5 | 4.93e5 | 1.27e6 | 1.25e6 | inactive |
| Rpt6R (Regulatory particle triple-A ATPase 6-related) | DRSC15431 | 2.46e5 | 2.47e5 | 2.09e6 | 3.18e6 | inactive |
| Syx4 (Syntaxin 4) | DRSC18586 | 4.22e5 | 3.65e5 | 4.88e6 | 4.66e6 | inactive |

The list goes on.
| gene knocked down | dsRNA | firefly reporter light, replicate 1 | firefly reporter light, replicate 2 | Renilla control light, replicate 1 | Renilla control light, replicate 2 | Outcome |
| --- | --- | --- | --- | --- | --- | --- |
| Ank (Ankyrin) | DRSC17127 | 36388 | 43216 | 3.33e5 | 3.19e5 | inactive |
| Ank (Ankyrin) | DRSC29865 | 9.77e5 | 7.20e5 | 1.55e6 | 1.61e6 | inactive |
| Tehao | DRSC03449 | 1.63e5 | 1.34e5 | 1.24e6 | 1.28e6 | inactive |
| TotA (Turandot A) | DRSC13448 | 1.35e5 | 1.67e5 | 24313 | 1.93e5 | inactive |
| l(1)sc (lethal of scute) | DRSC18789 | 1.80e5 | 1.85e5 | 2.72e6 | 1.93e6 | inactive |
| l(1)sc (lethal of scute) | DRSC28734 | 4.88e5 | 4.71e5 | 8.84e5 | 9.22e5 | inactive |
| CR14117 (pseudo) | DRSC10121 | 1.13e5 | 81053 | 1.26e6 | 9.67e5 | inactive |
| CR14117 (pseudo) | DRSC25950 | 5.95e5 | 6.42e5 | 7.23e5 | 7.38e5 | inactive |
| comm2 | DRSC10877 | 3.58e5 | 3.86e5 | 3.29e6 | 2.87e6 | inactive |
| CG6696 | DRSC20004 | 1.62e5 | 1.07e5 | 8.52e5 | 3.30e5 | inactive |
| CG6696 | DRSC25648 | 7.88e5 | 8.87e5 | 7.51e5 | 9.08e5 | inactive |
| Vajk2 | DRSC02540 | 2.48e5 | 2.28e5 | 1.88e6 | 2.13e6 | inactive |
| Vajk2 | DRSC25275 | 6.50e5 | 7.89e5 | 8.70e5 | 9.36e5 | inactive |
| CG34206 | DRSC38661 | 8.87e5 | 7.51e5 | 2.09e6 | 2.13e6 | inactive |
| cana + CG33695 | DRSC23517 | 8.62e5 | 8.93e5 | 1.56e6 | 1.59e6 | inactive |
| Ir7f (Ionotropic receptor 7f) | DRSC18012 | 2.36e5 | 3.73e5 | 2.45e6 | 3.24e6 | inactive |
| mIF2 (mitochondrial translation initiation factor 2) | DRSC14510 | 2.22e5 | 2.10e5 | 2.10e6 | 2.47e6 | inactive |
| mIF2 (mitochondrial translation initiation factor 2) | DRSC26368 | 3.17e5 | 4.31e5 | 5.43e5 | 5.69e5 | inactive |
| BuGZ (Bub3 interacting GLEBS and Zinc finger domain protein) | DRSC02642 | 4.72e5 | 6.18e5 | 1.41e6 | 1.43e6 | inactive |
| BuGZ (Bub3 interacting GLEBS and Zinc finger domain protein) | DRSC02643 | 1.86e5 | 1.59e5 | 2.07e6 | 2.03e6 | inactive |
| BuGZ (Bub3 interacting GLEBS and Zinc finger domain protein) | DRSC25285 | 8.97e5 | 7.73e5 | 8.26e5 | 6.32e5 | inactive |
| BuGZ (Bub3 interacting GLEBS and Zinc finger domain protein) | DRSC36510 | 5.82e5 | 4.42e5 | 1.43e6 | 1.51e6 | inactive |
| BuGZ (Bub3 interacting GLEBS and Zinc finger domain protein) | DRSC36511 | 6.75e5 | 6.52e5 | 1.47e6 | 1.39e6 | inactive |
| CG6870 | DRSC02998 | 1.19e5 | 1.32e5 | 1.62e6 | 1.37e6 | inactive |
| CG6870 | DRSC25586 | 7.57e5 | 8.71e5 | 8.09e5 | 8.52e5 | inactive |
